The experiment is described as follows: IkB Signaling. Particulars: ABC-DLBCL IkBa-CBG/CBR dual luciferase ratio (green luciferase fused to IkBa over red control in OCI-Ly3 lymphoma cells), 4 h. In outline: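 Luminescence ratio of IκBα-fused green versus native red beetle luciferase in OCI-Ly3 cells, 4 h post-doxycycline with compound; red signal alone, scaled from basal (0%) to zero light (-100%), flagged nonspecific or cytotoxic effects.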
The mark [1] stands for this setting: measured here: control luc red channel unless noted.
Setting [2] is: measured here: IkB-luc green channel.
Setting [3] is: measured here: control luc red channel.

The structures appear in SMILES notation. The list shows a part of the results. Shown are side measurements of this screen, not its main read-out; they come without a call. The list favours compounds with an active or inconclusive main result. Words in brackets tell the shape of the fitted curve; partial curves, single points and poor fits give uncertain potencies.

Usually AC50 stands for the concentration at which the activity in the assay is half-maximal.

Take `COc1ccccc1N1CCN(C(=O)c2cc(-c3cccs3)on2)CC1`: the AC50 under setting [1] was 31.6 µM [falling, partial curve].
With `Fc1ccccc1N1CCN(c2nnc(C(F)(F)F)c3nnn(Cc4ccccc4)c23)CC1`, the AC50 under setting [1] was 39.8 µM [falling, single point].
Same read-out and setting: as for `CN(C)S(=O)(=O)N(CC(=O)Nc1ccc(Br)cc1F)c1ccccc1`, the figure is 39.8 µM [falling, single point].
Same read-out and setting: the figure for `COc1ccc(C)cc1NC(=O)C1CCCN(S(=O)(=O)c2ccc3c(c2)CCCN3C(C)=O)C1` (stereo not drawn) is 0.126 µM [falling, full curve, poor fit]; for `C=CCn1c(SCC(=O)Nc2cccc(OC)c2)nnc1-c1cccnc1` it is 7.94 µM [falling, partial curve].
`CCCn1c(CN2CCN(C(=O)c3ccco3)CC2)nc2c1c(=O)n(C)c(=O)n2C`: the AC50 is 31.6 µM [rising, partial curve] under setting [2] and 6.31 µM [falling, partial curve] under setting [3].
On to `CCC(C)(C)NC(=O)C1CCC(CNS(=O)(=O)c2ccc3c(c2)CC(C)N3C(C)=O)CC1` (stereo not drawn), for which the AC50 under setting [1] is 20 µM [falling, single point].
Regarding `O=C1CCCC(O)=C1C(C#Cc1ccccc1)C1=C(O)CCCC1=O`, the AC50 under setting [1] is 25.1 µM [falling, partial curve].
The same measure, in the same setting: the figure for `COc1cccc(NC(=O)Cn2cnc3sc(C)c(S(=O)(=O)N4CCN(C)CC4)c3c2=O)c1` is 31.6 µM [falling, partial curve]; for `CCOc1ccccc1NC(=O)c1cc(CC(C)C)oc1C` it is 31.6 µM [falling, partial curve]; for `Cc1ccccc1Cn1c(=O)n(Cc2ccco2)c(=O)c2oc3ccccc3c21` it is 0.0251 µM [rising, full curve].
For `CCN(CC)S(=O)(=O)c1ccc(/C(O)=C(\C#N)c2nc3ccccc3n2C)cc1`, the AC50 under setting [1] was 25.1 µM [falling, partial curve].
For the compound `O=C(c1ccc2c(c1)CCN2S(=O)(=O)c1ccc(Cl)cc1)N1CCN(c2ccccc2F)CC1`, the AC50 under setting [1] is 12.6 µM [falling, partial curve].
Still for that read-out and setting: the figure for `Cc1nn(-c2ccccc2)c2c1C(O)n1c(nc3ccccc31)S2` (stereo not drawn) is 6.31 µM [falling, partial curve]; for `COc1ccc(S(=O)(=O)N2CCC(NC(=O)Nc3ccc(C)cc3)CC2)cc1` it is 31.6 µM [falling, single point]; for `CN(C)c1ccc(CN2CCc3nc(N4CCN(c5ccccn5)CC4)ncc3C2)cc1` it is 31.6 µM [falling, partial curve].
Same read-out and setting: the figure for `Cc1nc2c(c(SCC(=O)Nc3ccccc3C(F)(F)F)n1)CCC2` is 31.6 µM [falling, single point]; for `Cc1cc(OC(C)C(=O)N2CCN(CCc3ccccn3)CC2)ccc1Cl` (stereo not drawn) it is 20 µM [falling, partial curve].
On the same count and under the same terms, as for `CCOc1ccccc1N1CC(c2nc3ccccc3n2CCCOc2ccccc2)CC1=O` (stereo not drawn), the figure is 25.1 µM [falling, partial curve]; as for `CC(C)C(=O)NC1CC(=O)N(c2ccc3c(c2)OCCO3)C1` (stereo not drawn), 1.26 µM [rising, full curve, poor fit].
In the case of `Cc1nnc(N2CCN(c3ccc(Cl)cc3)CC2)c2c1nnn2Cc1ccc(F)cc1`, the AC50 under setting [1] was 10 µM [falling, partial curve].
On the same count and under the same terms, as for `Oc1ccc(Nc2nc(-c3ccc(O)cc3)cs2)cc1`, the figure is 15.8 µM [falling, partial curve].
On the same count and under the same terms, as for `CN(C1CCCCC1)S(=O)(=O)c1ccc(F)c(C(=O)Nc2ccc(C(F)(F)F)cc2)c1`, the figure is 15.8 µM [falling, partial curve]; as for `COc1ccc(NC(=O)c2c(NCc3cccs3)sc3c2CCCCC3)cc1`, 3.98 µM [falling, full curve]; as for `Cc1ccc(-n2nc(C)c3c(C)cc(=O)n(CC(=O)Nc4ccc(C(C)C)cc4)c32)cc1`, 0.0158 µM [rising, full curve, poor fit].
As for `CCc1ccc(NC(=O)C(=O)NCCc2sc(-c3ccc(OC)c(OC)c3)nc2C)cc1`, under setting [1], the AC50 is 10 µM [rising, partial curve].
In the case of `COc1cc(OC)cc(C(=O)NCCc2csc(-c3cccc(C)c3)n2)c1`, under setting [1], the AC50 was 20 µM [falling, partial curve].
The same measure, in the same setting: the figure for `CC1CCCCN1C(=O)c1ccc2c(c1)N(Cc1ccc(Cl)cc1)C(=O)c1ccccc1S2=O` (stereo not drawn) is 20 µM [falling, partial curve].
Turning to `C[C@@]12CCC(=O)C=C1CC[C@@H]1[C@@H]2[C@H](O)C[C@]2(C)[C@@H]1CC[C@]2(O)C(=O)COC(=O)CCC(=O)O`, the AC50 under setting [1] was 126 nM [rising, full curve] [measured here: IkB-luc green channel].
On the same count and under the same terms, the figure for `CCc1cccc(NC(=O)c2cc(-c3ccccc3)n[nH]2)c1` is 0.794 µM [falling, partial curve]; for `O=C(Nc1cccc(Cl)c1)C1CCN(c2nc3ccccc3nc2C(F)(F)F)CC1` it is 31.6 µM [falling, single point].
Still for that read-out and setting: the figure for `COc1cccc(OCCCn2c(-c3ccc(Cl)cc3)nc3ccccc3c2=O)c1` is 10 µM [falling, single point].
Turning to `Cc1ccsc1C(=O)Nc1nnc(-c2ccco2)o1`, the AC50 is 25.1 µM [rising, single point] under setting [2] and 5.01 µM [falling, full curve] under setting [3].
Consider `CCCCSCCCNC(=O)CS(=O)Cc1nc(-c2cccc(C)c2)oc1C` (stereo not drawn), for which the AC50 under setting [1] was 31.6 µM [falling, partial curve].
`Cc1cc(C)n(-c2nc3ccccc3[nH]c2=O)n1`: under setting [1], the AC50 was 10 µM [falling, partial curve].
The same measure, in the same setting: the figure for `CCCCSc1nnc2c(n1)OC(c1ccc(Br)s1)Nc1ccccc1-2` (stereo not drawn) is 31.6 µM [falling, partial curve].
Still for that read-out and setting: the figure for `CCCCOC(=O)c1ccc(-n2nnc3c(sc4nc(C)cc(C)c43)c2=O)cc1` is 12.6 µM [falling, partial curve].
On the same count and under the same terms, the figure for `COc1ccc(CNC(=O)c2c(O)nc3c(C)cccn3c2=O)cc1` is 39.8 µM [falling, single point]; for `Cc1cc(N2CCC(C)CC2)nc2ccc(NC(=O)Cc3ccccc3Br)cc12` it is 7.94 µM [falling, partial curve].
As for `COc1cc2nc(Nc3cccc(F)c3)nc(N)c2cc1OC`, under setting [1], the AC50 is 5.01 µM [falling, partial curve].
The same measure, in the same setting: as for `CCOc1ccc(-c2nc(-c3ccccc3)c(-c3ccccc3)[nH]2)cc1OCC`, the figure is 7.94 µM [falling, partial curve].
Same read-out and setting: as for `CCOC(=O)N[C@H](Cc1c[nH]c2ccccc12)C(=O)Nc1cccc(Cl)c1`, the figure is 12.6 µM [falling, partial curve].
The same measure, in the same setting: the figure for `CCOc1ccccc1N1CSC2=C(C#N)C(c3c(OC)ccc4ccccc34)CC(=O)N2C1` (stereo not drawn) is 39.8 µM [rising, single point] [measured here: IkB-luc green channel]; for `COc1ccc(C(=O)c2cn(CC(=O)Nc3cc(C)ccc3C)c3nc(C)ccc3c2=O)cc1` it is 0.316 µM [rising, full curve, poor fit].
In the case of `CCOCCCN(Cc1ccco1)C(=O)c1cc2c(s1)-c1c(C)cccc1OC2`, the AC50 under setting [1] was 31.6 µM [falling, single point].
Same read-out and setting: as for `CC(C)Oc1ccc(CNC(=O)C2=Cc3ccccc3OC2)cc1`, the figure is 31.6 µM [falling, partial curve]; as for `NC(=O)C1CCN(c2csc3ccc(F)cc3c2=O)CC1`, 6.31 µM [falling, partial curve].
For `O=C(Nc1ccc(NC(=O)c2ccco2)cc1)c1cnccn1`, under setting [1], the AC50 was 20 µM [falling, partial curve].
On to `Cc1ccc(NC(=O)CN(C)S(=O)(=O)c2cccc3nsnc23)cc1Cl`, for which the concentration at half-maximal activity (AC50) under setting [1] is 25.1 µM [falling, partial curve].
Still for that read-out and setting: the figure for `Cc1ccc(-c2noc(CNC(=O)c3ccc(C)c(Cl)c3)n2)cc1` is 25.1 µM [falling, partial curve]; for `COc1ccc(N2CCN(C(=O)CSc3ncccc3-c3nc4ccccc4[nH]3)CC2)cc1` it is 0.631 µM [falling, full curve].
As to `O=C(NCc1ccccc1Cl)c1nnc(Cc2cccc(F)c2)o1`, the AC50 under setting [1] is 5.01 µM [falling, partial curve].
Still for that read-out and setting: as for `CCN(CC)S(=O)(=O)c1cc(C(=O)Nc2ccc(Cl)cn2)ccc1C`, the figure is 10 µM [falling, partial curve].
The same measure, in the same setting: the figure for `Cc1ccc2c(CC(=O)N(Cc3ccc(N(C)C)cc3)Cc3ccco3)coc2c1C` is 15.8 µM [falling, partial curve]; for `Cc1ccc2oc(-c3ccc(C)c(NC(=O)/C=C/c4ccco4)c3)nc2c1` it is 25.1 µM [falling, partial curve]; for `N#Cc1ccccc1CSc1nnc(-c2ccc(Br)cc2)o1` it is 2 µM [rising, partial curve].
Still for that read-out and setting: as for `O=C1CSC2(C(=O)N(Cc3cccc(C(F)(F)F)c3)c3ccccc32)N1c1ccc(F)c(F)c1` (stereo not drawn), the figure is 31.6 µM [falling, single point]; as for `COc1cccc(-c2cc(C(F)(F)F)n3ncc(C(=O)OC(C)C)c3n2)c1`, 1.58 µM [rising, full curve, poor fit]; as for `O=C(c1ccco1)N1CCN(c2ncnc3c2oc2ccccc23)CC1`, 25.1 µM [falling, single point].
On to `COc1ccc(C(=O)c2cn(CC(=O)Nc3cc(OC)cc(OC)c3)c3ccc(OC)cc3c2=O)cc1`, for which the concentration at half-maximal activity (AC50) under setting [1] was 25.1 µM [falling, partial curve].
Same read-out and setting: as for `COC(=O)c1ccccc1NC(=O)Cn1c(=O)n(CCC(=O)NCc2ccc3c(c2)OCO3)c(=O)c2ccccc21`, the figure is 39.8 µM [rising, single point] [measured here: IkB-luc green channel].

The values above are taken from PubChem BioAssay AID445 (National Center for Advancing Translational Sciences (NCATS), 2006).
